Measured values: patent publication US20210371524A1 (VOR BIOPHARMA, published 2021)

What was measured:
[1] = molecular target: cynomolgus CD45 RABC (cynomolgus); assay: Octet binding experiments
[2] = molecular target: human CD45RO (human); assay: Octet binding experiments
[3] = molecular target: cynomolgus CD45 on cyno PBMC (cynomolgus); assay: flow cytometry, 24 h PBMC binding
[4] = molecular target: cynomolgus CD45 RABC (cynomolgus); assay: statement in the epitope mapping example

| Binder | binding [1] | binding [2] | binding [3] | binding [4] |
| --- | --- | --- | --- | --- |
| AbB (rat anti-human CD45 monoclonal clone, before chimerisation) (antibody, V domains shown) VH: EVQLVESGGDLVQPGRSLKLSCIASGFTFTNFWMTWIRQVSGKGLEWVASISSSGGSIYYPDSVKDRFTISRDNAKNTLYLQMNSLRSEDTATYYCVKLHYYSGGGDAWGQGTSVTVSS VL: DIQMTQSPSFLSASVGDRVTINCKASQNINKYLDWYQQKHGEAPKLLIHYTNNLHTGIPSRFSGSGSGTDYTLTISSLQPEDVATYFCLQHSSRWTFGGGTKLELK | binds | binds |  |  |
| AbC (rat anti-human CD45 monoclonal clone, before chimerisation) (antibody, V domains shown) VH: EVQLVESGGDLVQPGRSLKLSCVASGFTFNNYWMTWIRQVPGKGLEWVASISSSGGSIYYPDSVKDRFTISRDNAKNTLFLQMNSLRSEDTATYYCARLYYYSGGGDAWGQGTSVTVSS VL: DIQMTQSPSFLSASVGDRVTIICKASQDINKYLDWYQQKLGEAPKLLIYNTNNLHTGIPSRFSGSGSGTDYTLTISSLQPEDVATYFCLQHISRWTFGGGTKLELK | binds | binds |  |  |
| AbA chimera (chimeric Antibody A, human IgG1) (antibody, V domains shown, also called chimeric AbA) VH: EVQLVESGGDRVQPGRSLTLSCVTSGFTFNNYWMTWIRQVPGKGLEWVASISSSGGSIYYPDSVKGRFTISRDNAKNTLYLQMNSLRSEDTATYYCARDERWAGAMDAWGQGTSVTVSS VL: DIQMTQSPPVLSASVGDRVTLSCKASQNINKNLDWYQQKHGEAPKLLIYETNNLQTGIPSRFSGSGSGTDYTLTISSLQPEDVATYYCYQHNSRFTFGSGTKLEIK |  |  | binds | binds |
| AbB chimera (chimeric Antibody B, human IgG1) (antibody, V domains shown, also called chimeric AbB) VH: EVQLVESGGDLVQPGRSLKLSCIASGFTFTNFWMTWIRQVSGKGLEWVASISSSGGSIYYPDSVKDRFTISRDNAKNTLYLQMNSLRSEDTATYYCVKLHYYSGGGDAWGQGTSVTVSS VL: DIQMTQSPSFLSASVGDRVTINCKASQNINKYLDWYQQKHGEAPKLLIHYTNNLHTGIPSRFSGSGSGTDYTLTISSLQPEDVATYFCLQHSSRWTFGGGTKLELK |  |  | binds |  |
| AbC chimera (chimeric Antibody C, human IgG1) (antibody, V domains shown, also called chimeric AbC) VH: EVQLVESGGDLVQPGRSLKLSCVASGFTFNNYWMTWIRQVPGKGLEWVASISSSGGSIYYPDSVKDRFTISRDNAKNTLFLQMNSLRSEDTATYYCARLYYYSGGGDAWGQGTSVTVSS VL: DIQMTQSPSFLSASVGDRVTIICKASQDINKYLDWYQQKLGEAPKLLIYNTNNLHTGIPSRFSGSGSGTDYTLTISSLQPEDVATYFCLQHISRWTFGGGTKLELK |  |  | binds |  |
| AbA (rat anti-human CD45 monoclonal clone, before chimerisation) (antibody, V domains shown) VH: EVQLVESGGDRVQPGRSLTLSCVTSGFTFNNYWMTWIRQVPGKGLEWVASISSSGGSIYYPDSVKGRFTISRDNAKNTLYLQMNSLRSEDTATYYCARDERWAGAMDAWGQGTSVTVSS VL: DIQMTQSPPVLSASVGDRVTLSCKASQNINKNLDWYQQKHGEAPKLLIYETNNLQTGIPSRFSGSGSGTDYTLTISSLQPEDVATYYCYQHNSRFTFGSGTKLEIK | binds |  |  |  |

Results are given in words; binding and its absence hold for the method and conditions named. A result given as binding can be weak or reduced; the word gives no strength.
